Laboratory results as given in PubChem BioAssay AID504834 (National Center for Advancing Translational Sciences (NCATS), 2011).
“And” between values parts separate entries of the source, which are not always exact repeats. Equal values may be shown once. In all, about 320,000 compounds went through this assay and about 22,000 (6.9%) were called active. The shares of active, inactive and inconclusive entries below differ from those in the screen. Calls come from the whole dose curve; as a rule, active = well fitted inhibition curve with a large enough effect; inconclusive = small, poorly fitted or top-dose-only effect, or another doubt; inactive = no such curve, though single readings can be large or run the other way. Where the call is inconclusive, the potency comes from a doubtful curve fit. Where a structure was tested more than once in an assay, its records may differ in their call.

Experiment: Primary qHTS for delayed death inhibitors of the malarial parasite plastid, 96 hour incubation
Settings: P. falciparum luciferase reporter growth; series mostly up to 28.7 µM; activity change, negative = inhibition: at the top concentration
Summary of the method: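 Two-generation exposure (96 h) targets delayed-death phenotype. Reporter parasites carrying integrated firefly luciferase, in red cells at 2% hematocrit and 0.05% parasitemia final, kept at 37 C, 5% CO2; luminescence loss indicates inhibition.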
% is set by controls: 0 for no effect and ±100 for the full control effect; potency is the fitted concentration of half-maximal effect.

With `CCC1CCc2c(sc(NC(=O)c3ccoc3C)c2C(N)=O)C1` (stereo not drawn) as the molecule, how does the “activity change, negative = inhibition” value read?
Its value is inactive: 129%.

For `C/C(=N/N1CCN(Cc2cccc3ccccc23)CC1)c1ccco1`, which “activity change, negative = inhibition” value is on record?
The value was inactive: 1.68%.

With `CC1CC(C)CN(CCCNC(=O)CCC(=O)N2CC(C)Oc3ccccc32)C1` (stereo not drawn) as the molecule, how does the Potency read?
Its Potency is inconclusive: 18.5 µM [inhibitor, single point].

With `CC(NC(=O)CSC1=NCCS1)c1ccccc1` (stereo not drawn) as the molecule, how does the “activity change, negative = inhibition” value read?
Its value is inactive: -18.3%.

With `OCCN(Cc1nc(-c2ccc3c(c2)OCO3)no1)Cc1cccs1` as the molecule, how does the “activity change, negative = inhibition” value read?
The value was inactive: 25.5%.

For `COC(=O)c1cccc(NC(=O)CSc2nnc(C)n2Cc2ccccc2)c1`, which “activity change, negative = inhibition” value is on record?
The value was inactive: 0.066%.

For `Cc1ccc(S(=O)(=O)N2CCC3(CC2)OCCN3S(=O)(=O)c2cccs2)cc1`, which Potency is on record?
Its Potency is inconclusive: 13.1 µM [inhibitor, single point].

Which Potency does the source give for `Cc1cc(C)cc(NC(=O)c2ccc3nc[nH]c3c2)c1` here?
The Potency was inconclusive: 0.465 µM [inhibitor, full curve].

With `COc1ccc(S(=O)(=O)N2CCC(C(=O)NC3CCCCC3)CC2)cc1C` as the molecule, how does the Potency read?
Its Potency is inconclusive: 7.38 µM [inhibitor, partial curve, poor fit].

With `CC12CC3(C)CC(C)(C1)CC(C(N)=O)(C2)C3` as the molecule, how does the Potency read?
Its Potency is inconclusive: 4.15 µM [inhibitor, partial curve, poor fit].

For `O=C(NCc1ccccc1)N[C@@H](Cc1ccccc1)C(=O)O`, which Potency is on record?
Its Potency is inconclusive: 20.8 µM [inhibitor, partial curve, poor fit].

With `CCOCCCNC(=O)c1ccc2c(=O)n(CCCOCC)c(=S)[nH]c2c1` as the molecule, how does the Potency read?
Its Potency is inconclusive: 13.1 µM [inhibitor, single point].

For `O=S(=O)(c1cc(Cl)ccc1Cl)N1CCN2CCCC2C1` (stereo not drawn), which Potency is on record?
Its Potency is inconclusive: 18.5 µM [inhibitor, single point].

For `CC(C)Nc1nc(Cl)nc(NN(C)c2nc(N(C)C)nc(N(C)C)n2)n1`, which Potency is on record?
The Potency was inconclusive: 18.5 µM [inhibitor, single point].

For `COc1ccc(-c2nnc(NC(=O)c3ccc(S(=O)(=O)N(C)CC4CCCO4)cc3)o2)c(OC)c1` (stereo not drawn), which Potency is on record?
The Potency was inconclusive: 18.5 µM [inhibitor, single point].

Which Potency does the source give for `C=C(C)COc1ccc(-c2[nH]ncc2Oc2ccccc2OCC)c(O)c1` here?
The Potency was active: 1.17 µM.

For `O=C(CN1CCC(n2nnc3cc(F)ccc32)CC1)NCCc1nc2ccccc2[nH]1`, which Potency is on record?
Its Potency is inconclusive: 0.0828 µM [inhibitor, full curve, poor fit].

With `Cc1cc(-c2ccccc2)nnc1NCCN1CCOCC1` as the molecule, how does the Potency read?
Its Potency is “inactive”.

With `CCC(=O)Nc1ccc2c(c1)nc(CCN1CCN(c3ccccc3)CC1)n2C` as the molecule, how does the Potency read?
The Potency was inconclusive: 5.22 µM [inhibitor, partial curve, poor fit].

With `CC(C)Cc1c(O)nc(SCCN2CCOCC2)[nH]c1=O` as the molecule, how does the Potency read?
Its Potency is inconclusive: 18.5 µM [inhibitor, partial curve, poor fit].

With `COC(=O)c1nnn(-c2nonc2N)c1-c1cccs1` as the molecule, how does the Potency read?
The Potency was inconclusive: 18.5 µM [inhibitor, single point].

Which Potency does the source give for `Cn1c(C(=O)NCC2CCCO2)cc2c(=O)[nH]c3ccccc3c21` (stereo not drawn) here?
The Potency was inconclusive: 18.5 µM [inhibitor, single point].

Which Potency does the source give for `COc1ccc(OC)c(-n2c(=S)[nH]c3c(sc(=S)n3-c3ccccc3)c2=O)c1` here?
Its Potency is inconclusive: 11.7 µM [inhibitor, single point].

Which Potency does the source give for `CCn1c(Cc2ccccc2)nnc1SCC(=O)c1c(N)n(C2CC2)c(=O)[nH]c1=O` here?
Its Potency is active: 9.28 µM.

With `O/N=C1\CC2(Cc3nonc31)OCCO2` as the molecule, how does the Potency read?
The Potency was inconclusive: 0.522 µM [inhibitor, full curve, poor fit].

For `COc1ccc(S(=O)(=O)N2CCC(Cc3ccccc3)CC2)cc1C(N)=O`, which Potency is on record?
Its Potency is inconclusive: 10.4 µM [inhibitor, single point].

With `CC(C)N(C(=O)COC(=O)c1ccc(Cl)s1)c1ccccc1` as the molecule, how does the Potency read?
Its Potency is inconclusive: 11.7 µM [inhibitor, partial curve, poor fit].

For `Clc1ccc(Nc2c3c(nc4ncnn24)CCC3)cc1`, which Potency is on record?
The Potency was inconclusive: 1.85 µM [inhibitor, full curve].

With `C/C(=N/N1CCN(Cc2ccccc2)CC1)c1ccc(Br)cc1` as the molecule, how does the “activity change, negative = inhibition” value read?
Its value is inactive: 37.2%.

With `Cc1cc(Nc2nc3ccccc3nc2Cl)n(-c2ccc([N+](=O)[O-])cc2)n1` as the molecule, how does the Potency read?
The Potency was active: 1.04 µM.

Which Potency does the source give for `COc1cccc(N2CCN(C(=O)C3CCCN(S(=O)(=O)c4cnc[nH]4)C3)CC2)c1` (stereo not drawn) here?
Its Potency is inconclusive: 18.5 µM [inhibitor, single point].

For `CCOC(=O)c1c(NC(=O)CSc2nnc(CNc3ccc(F)cc3)o2)sc(C(C)=O)c1C`, which Potency is on record?
Its Potency is active: 1.65 µM.

Which “activity change, negative = inhibition” value does the source give for `O=C(COc1ccc2ccc(=O)oc2c1)NC1CCN(Cc2ccccc2)CC1` here?
The value was inactive: -16.5%.

For `O=C(N/N=C/c1ccc(OC(=O)c2ccccc2Cl)cc1)c1ccc(O)cc1`, which Potency is on record?
Its Potency is inconclusive: 10.4 µM [inhibitor, single point].

Which Potency does the source give for `O=C(N/N=C1\C(=O)c2cccc3cccc1c23)c1ccc(O)cc1` here?
Its Potency is inconclusive: 18.5 µM [inhibitor, single point].

With `C=CCNC(=O)/C(C#N)=C/c1c(N2CCN(c3ccccc3)CC2)nc2c(C)cccn2c1=O` as the molecule, how does the Potency read?
Its Potency is inconclusive: 1.47 µM [inhibitor, partial curve, poor fit].

Which Potency does the source give for `O=C(O)c1ccc(-n2cccc2)cc1O` here?
Its Potency is inconclusive: 10.4 µM [inhibitor, partial curve, poor fit].

With `CCOC(=O)N1CCN(S(=O)(=O)c2ccc(C(=O)N(CCCN(C)C)c3nc4c(C)c(C)ccc4s3)cc2)CC1` as the molecule, how does the Potency read?
Its Potency is inconclusive: 16.5 µM [inhibitor, single point].

For `COc1cccc(N2CC(C(=O)Nc3ccc(C(=O)OC(C)C)cc3)CC2=O)c1` (stereo not drawn), which “activity change, negative = inhibition” value is on record?
The value was inactive: 41.4%.

For `COc1ccc(CNC(=O)CN2CCN(c3ccccc3)CC2)cc1`, which “activity change, negative = inhibition” value is on record?
The value was inactive: 18.7%.

Which Potency does the source give for `O=C(Cn1cc(C(=O)c2ccco2)c2ccccc21)Nc1ccccc1` here?
The Potency was inconclusive: 18.5 µM [inhibitor, single point].

For `COCCN1Cc2cccc(C(=O)Nc3ccc(-c4nc5ccccc5[nH]4)cc3)c2C1=O`, which Potency is on record?
The Potency was inconclusive: 8.28 µM [inhibitor, partial curve, poor fit].

With `COc1ccccc1-c1ocnc1C(=O)N1CCN(C(=O)C(c2ccccc2)c2ccccc2)CC1` as the molecule, how does the Potency read?
Its Potency is inconclusive: 5.86 µM [inhibitor, partial curve].

With `CN1CCN(C(=O)C2CCCN(S(=O)(=O)c3ccc(F)cc3)C2)CC1` (stereo not drawn) as the molecule, how does the Potency read?
The Potency was inconclusive: 18.5 µM [inhibitor, single point].

With `CCOc1cc(C2C(C#N)=C(N)OC(C)=C2C(C)=O)cc(Br)c1O` (stereo not drawn) as the molecule, how does the Potency read?
Its Potency is inconclusive: 18.5 µM [inhibitor, single point].

Which Potency does the source give for `Cc1noc(C)c1COC(=O)C1CCN(C(=O)c2ccc(Cl)cc2)CC1` here?
The Potency was inconclusive: 2.94 µM [inhibitor, full curve, poor fit].

Which “activity change, negative = inhibition” value does the source give for `O=C(Nc1ccc(F)cc1F)N1CCN(c2ncccn2)CC1` here?
The value was inactive: 9.5%.

For `CCOCCCNC(=S)N(CCCN(C)C)Cc1cc2cc3c(cc2[nH]c1=O)OCCO3`, which Potency is on record?
The Potency was inconclusive: 0.465 µM [inhibitor, full curve, poor fit].

With `O=C(NCC1(O)CCCCC1)C1CCC(=O)N(CCc2ccccc2)C1` (stereo not drawn) as the molecule, how does the “activity change, negative = inhibition” value read?
Its value is inactive: -18.2%.

With `CCCCc1cc(C(=O)Cc2ccccn2)c(O)cc1O` as the molecule, how does the Potency read?
The Potency was inconclusive: 18.5 µM [inhibitor, single point].

Which Potency does the source give for `COc1cccc(CC2(CO)CCCN(Cc3ccc(-c4ccco4)cc3)C2)c1` (stereo not drawn) here?
The Potency was inconclusive: 11.7 µM [inhibitor, single point].

Which Potency does the source give for `NC(N)=Nc1nc(CSCC/C(N)=N/S(N)(=O)=O)cs1` here?
The Potency was “inactive and active: 4.26 µM”.

Which “activity change, negative = inhibition” value does the source give for `CC(=O)c1ccc(NCC2COc3ccccc3O2)c([N+](=O)[O-])c1` (stereo not drawn) here?
The value was inactive: 156%.

For `COC(=O)/C=C1\SC(=NC(=O)c2ccc(OC)cc2)NC1=O`, which Potency is on record?
Its Potency is inconclusive: 4.15 µM [inhibitor, partial curve, poor fit].

For `CC(=O)c1cccc(NC(=O)CN2CCN(Cc3ccccc3)CC2)c1`, which Potency is on record?
The Potency was inconclusive: 13.1 µM [inhibitor, single point].

With `O=C1c2ccccc2C(=O)N1CC1c2ccccc2CCN1C(=O)CN1CCOCC1` (stereo not drawn) as the molecule, how does the “activity change, negative = inhibition” value read?
The value was inactive: 13.4%.

With `O=C(Nc1nc2c(s1)CN(Cc1ccccc1)CC2)C1CCCC1` as the molecule, how does the Potency read?
The Potency was inconclusive: 10.4 µM [inhibitor, single point].

With `O=C(Cn1nnc(-c2cccs2)n1)NCCc1ccccc1` as the molecule, how does the Potency read?
Its Potency is inconclusive: 18.5 µM [inhibitor, single point].

For `COc1ccc(CC(=O)Nc2nc(-c3cc(OC)ccc3OC)cs2)cc1`, which Potency is on record?
Its Potency is inconclusive: 13.1 µM [inhibitor, single point].

Which Potency does the source give for `COc1ccccc1-n1c(SCC(=O)Nc2cc(C)on2)nc2c(c1=O)SCC2` here?
Its Potency is inconclusive: 0.294 µM [inhibitor, full curve, poor fit].

Which “activity change, negative = inhibition” value does the source give for `COc1ccc(Cl)cc1NC(=O)CN(C)C(=O)Cc1n[nH]c(=O)c2ccccc12` here?
Its value is inactive: -12.7%.

Which Potency does the source give for `CCn1c(SCC(=O)Nc2ccc(C)cc2)nnc1-c1ccc(O)cc1` here?
Its Potency is active: 2.62 µM.

With `O=C(NCCCN1CCOCC1)c1sc2ccccc2c1Cl` as the molecule, how does the “activity change, negative = inhibition” value read?
Its value is inactive: -4.52%.

For `N#C/C(=C/c1ccc2c(c1)OCO2)C(=O)Nc1ccc(O)cc1`, which Potency is on record?
The Potency was inconclusive: 0.0208 µM [inhibitor, full curve, poor fit].

With `Cc1ccc2[nH]c(=O)c(CN(Cc3ccccc3)C(=S)NCCCN(C)C)cc2c1` as the molecule, how does the Potency read?
Its Potency is inconclusive: 0.0029 µM [inhibitor, full curve, poor fit].

With `CC(=O)c1cccc(-n2nnnc2SCC(=O)NNC(=O)C(C)C)c1` as the molecule, how does the “activity change, negative = inhibition” value read?
Its value is inactive: 46.1%.

With `Cc1nn(Cc2ccccc2)c2c1C(c1cccc(Cl)c1)C(C#N)=C(N)O2` (stereo not drawn) as the molecule, how does the Potency read?
The Potency was inconclusive: 10.4 µM [inhibitor, single point].

For `Cc1cc(-c2nn(-c3ccccc3F)cc2CN2CCCC(O)C2)c(C)s1` (stereo not drawn), which Potency is on record?
Its Potency is inconclusive: 11.7 µM [inhibitor, single point].
